Reference: PubChem BioAssay AID686943 (Drosophila RNAi Screening Center, 2013)
In all, the deposit lists about 23,000 reagents; below is an unselected part of those with a known target gene and a result. 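Extra replicates exist only for a retested subset of genes; insulin dose and duration not given; both raised and lowered dpERK matter.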 Names joined by + are all predicted targets of the reagent. The record does not give: the amount of reagent, the time to read-out.

Test: 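Knockdowns that increase or decrease active ERK after insulin receptor stimulation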 (primary screen)
System: Drosophila S2R+ haemocyte-like cells expressing YFP-tagged ERK (Rolled)
Reagent: long dsRNA against Drosophila genes
Treatment: insulin stimulation versus unstimulated cells; dose and duration not given
Measured: 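Antibody staining for doubly phosphorylated ERK divided by ERK-YFP signal, as plate z-scores, in insulin-treated and untreated cells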
Reading the numbers: replicate 1, z-score of dpERK with insulin and replicate 2, z-score of dpERK with insulin: higher = more active ERK per ERK-YFP after insulin; replicate 1, z-score of dpERK under basal conditions: higher = more basal active ERK per ERK-YFP; replicate 1, z-score of ERK-YFP with insulin: higher = more YFP-tagged ERK signal

Target gene	DRSC id	replicate 1, z-score of dpERK with insulin	replicate 2, z-score of dpERK with insulin	replicate 1, z-score of dpERK under basal conditions	replicate 1, z-score of ERK-YFP with insulin
CG44000 + CG33995 + CG44001	DRSC00853	0.95	0.07	0.54	0.1
CG44000 + CG33995 + CG44001	DRSC02898	-0.37	0.34	0.66	0.58
antr (GeneID 246647)	DRSC22392	2.27	-0.05	-1.33	-1.11
Swim (GeneID 37537)	DRSC04334	0.49	-0.02	-0.17	-0.31
CG15537 (GeneID 43614)	DRSC15073	0.33	0.09	0.38	0.58
CG6180 (GeneID 34683)	DRSC02937	0.59	0.85	0.89	0.22
Odj (GeneID 42145)	DRSC16234	-0.46	-0.69	-0.34	0.91
CG6983 (GeneID 38964)	DRSC10757	-0.2	0.47	0.72	0.59
Ctu1 (GeneID 35920)	DRSC07069	-0.01	-0.04	-0.75	0.64
ssp5 (GeneID 41465)	DRSC14955	0.96	0.41	-0.24	-0.52
CG43777 + CG43776 + CG43775	DRSC04206	0.25	-0.28	1.38	-1.06
CG43190 (GeneID 12798407)	DRSC05316	-0.14	0.15	1.29	-0.2
CG4049 (GeneID 37860)	DRSC04443	-0.09	0.28	-0.34	-0.38
CG13362 (GeneID 31018)	DRSC17897	0.51	0.27	0.07	0.18
Aldh7A1 (GeneID 40097)	DRSC11083	1.19	0.43	0.49	0.68
Cyp4d14 (GeneID 45706)	DRSC18457	-0.74	-0.01	0.11	-0.26
pasi1 (GeneID 42139)	DRSC16299	1.04	0.97	0.32	-0.07
pasi1 (GeneID 42139)	DRSC22385	0.1	0.44	1.32	0.54
CG7567 (GeneID 43479)	DRSC16258	-1.01	-0.3	0.19	0.44
GlnRS (GeneID 45786)	DRSC14140	0.15	-0.07	0.35	-0.26
CG34404 (GeneID 41873)	DRSC15335	-0.75	0.58	1.47	0.29
CG34404 (GeneID 41873)	DRSC15978	-0.55	-0.36	-0.04	0.96
CG14763 (GeneID 35757)	DRSC06497	0.45	0.6	-0.28	0.6
CG30195 (GeneID 37592)	DRSC04155	-0.43	-1.31	-0.11	0.62
Manf (GeneID 41983)	DRSC14091	0.49	0.16	-0.17	-0.45
Tbc1d8-9 (GeneID 40361)	DRSC11820	-0.52	-0.33	0	0.91
CG3301 (GeneID 42528)	DRSC15471	0.22	-0.21	-0.18	-0.36
fs(1)N (GeneID 45973)	DRSC18578	-0.25	1.1	-0.49	-0.01
E(spl)mgamma-HLH (GeneID 43151)	DRSC16699	-0.02	0.22	-0.42	0.96
lin-52 (GeneID 31499)	DRSC18106	0.21	0.16	3.16	0.37
Mur89F (GeneID 42080)	DRSC15544	0.46	0.41	1.69	-1.84
LysB (GeneID 38125)	DRSC08673	0.4	-0.14	-0.38	0.02
CG13101 (GeneID 34221)	DRSC02201	0.15	-0.68	-0.13	0.24
CG9962 (GeneID 33448)	DRSC00739	-1.27	-0.39	-0.84	1.3
Sik3 (GeneID 37152)	DRSC06505	0.1	0.45	-0.03	0.22
Sik3 (GeneID 37152)	DRSC06771	-0.72	0.08	-0.49	0.19
CG40045 (GeneID 3355079)	DRSC21232	-0.02	0.36	0.52	0.45
Gss1 + Gss2	DRSC20008	0.43	0.05	0.12	-0.21
Gss1 + Gss2	DRSC21539	0.42	1.02	-0.26	0.31
Proc (GeneID 250710)	DRSC03009	-7.23	-4.74	-3.9	-3.99
CG10694 (GeneID 42855)	DRSC14263	-0.69	0	0.31	-0.14
CG11362 (GeneID 37574)	DRSC04106	0.4	-0.41	0.76	-0.01
CG11362 (GeneID 37574)	DRSC22032	0.49	-0.11	-0.38	-0.39
Obp56c (GeneID 170882)	DRSC06552	0.78	-1.27	-0.07	0.24
Obp56c (GeneID 170882)	DRSC22325	1.15	0.26	0.95	-1.38
CG32645 (GeneID 32264)	DRSC19683	-0.28	0.02	-1.07	0.98
CG32645 (GeneID 32264)	DRSC19889	0.31	0.69	-0.42	-0.03
CG15219 (GeneID 49992)	DRSC03715	0	0.19	-1.4	0.66
Slh (GeneID 33434)	DRSC00407	-0.35	-0.1	-0.02	0.14
Slh (GeneID 33434)	DRSC00789	1.94	2.57	0.36	-0.74
CG33080 (GeneID 31491)	DRSC18080	-1.02	-0.13	1.81	0.19
CG33080 (GeneID 31491)	DRSC18081	-0.21	-0.01	0.41	0.04
CG33080 (GeneID 31491)	DRSC18285	0.1	1.03	-1.58	-0.28
Lrpprc2 (GeneID 31095)	DRSC18605	-0.19	-0.39	-0.09	1.37
Ekar (GeneID 43806)	DRSC17161	-1.14	-0.11	0.01	0.8
CG1421 (GeneID 35432)	DRSC03707	0.78	0.28	1.29	-0.48
Cox10 (GeneID 34394)	DRSC02804	-0.09	0.49	-0.17	1.05

Taken from above:
For “replicate 2, z-score of dpERK with insulin”, Obp56c (GeneID 170882) [DRSC06552] shows -1.27
Under “replicate 1, z-score of ERK-YFP with insulin”, Sik3 (GeneID 37152) [DRSC06505] has 0.22
Obp56c (GeneID 170882) [DRSC22325], replicate 1, z-score of dpERK with insulin = 1.15
Under “replicate 1, z-score of dpERK under basal conditions”, Manf (GeneID 41983) [DRSC14091] is entered as -0.17
Under “replicate 1, z-score of dpERK under basal conditions”, CG13101 (GeneID 34221) [DRSC02201] has -0.13
Under “replicate 1, z-score of dpERK under basal conditions”, LysB (GeneID 38125) [DRSC08673] has -0.38
